Each number is a percent effect as filed.
How 0% and 100% were set is not recorded. Most values in the screen are low, and negative values occur.
This is an unselected part of the compounds tested.

By UniProt entry, the sequences of proteins in these tests, tags left out. Residues count along the entry.
UniProt A4I591, 1-473: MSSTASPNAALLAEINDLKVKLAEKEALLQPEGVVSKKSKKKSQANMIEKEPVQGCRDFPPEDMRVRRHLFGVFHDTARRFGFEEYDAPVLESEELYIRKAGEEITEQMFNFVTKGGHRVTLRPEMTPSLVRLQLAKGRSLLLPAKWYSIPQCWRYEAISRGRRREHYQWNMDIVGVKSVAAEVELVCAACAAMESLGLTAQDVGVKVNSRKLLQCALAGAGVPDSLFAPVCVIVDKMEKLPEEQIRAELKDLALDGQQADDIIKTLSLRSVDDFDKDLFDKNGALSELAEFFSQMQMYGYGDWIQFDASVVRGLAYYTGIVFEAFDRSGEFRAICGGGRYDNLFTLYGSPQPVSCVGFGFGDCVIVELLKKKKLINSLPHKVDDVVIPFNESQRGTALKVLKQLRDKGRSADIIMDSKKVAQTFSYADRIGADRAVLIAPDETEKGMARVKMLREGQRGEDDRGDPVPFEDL
UniProt P9WFT3, whole entry: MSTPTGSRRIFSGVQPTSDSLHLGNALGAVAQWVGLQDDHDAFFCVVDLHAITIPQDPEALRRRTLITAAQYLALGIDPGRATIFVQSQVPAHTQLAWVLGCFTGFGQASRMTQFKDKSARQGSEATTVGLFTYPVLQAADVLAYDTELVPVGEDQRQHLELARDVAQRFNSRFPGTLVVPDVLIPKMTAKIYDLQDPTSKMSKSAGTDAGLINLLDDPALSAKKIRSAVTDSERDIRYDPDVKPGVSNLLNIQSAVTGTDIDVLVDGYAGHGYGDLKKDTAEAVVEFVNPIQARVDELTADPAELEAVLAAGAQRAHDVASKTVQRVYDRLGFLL
UniProt P9WNZ1, whole entry: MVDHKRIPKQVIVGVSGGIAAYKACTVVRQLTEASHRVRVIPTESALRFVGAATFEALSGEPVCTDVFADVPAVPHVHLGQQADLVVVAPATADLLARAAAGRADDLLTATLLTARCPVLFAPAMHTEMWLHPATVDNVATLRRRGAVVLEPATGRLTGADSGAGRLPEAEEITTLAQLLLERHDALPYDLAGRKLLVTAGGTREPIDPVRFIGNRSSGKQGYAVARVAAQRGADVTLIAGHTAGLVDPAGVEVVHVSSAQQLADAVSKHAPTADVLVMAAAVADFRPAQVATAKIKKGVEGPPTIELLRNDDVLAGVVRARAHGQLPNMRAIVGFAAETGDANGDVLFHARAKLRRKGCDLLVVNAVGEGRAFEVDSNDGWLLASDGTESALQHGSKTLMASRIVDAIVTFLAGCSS

LiHisRS: 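Histidine-tRNA ligase, Leishmania infantum (UniProt A4I591). Enzyme assay of histidyl-tRNA synthetase; the read-out is not stated. Tested at 30 µM. The record gives no direction; compounds that gave an IC50 in retests scored well above the rest, so higher reads as stronger inhibition. The assay is labelled LdHisRS but filed under L. infantum. About 69,000 compounds were tested under these conditions; 0.6% (about 410) showed 50% or more at least once.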
MtTrpRS: 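Enzyme assay of tryptophanyl-tRNA synthetase; the read-out is not stated. Target: Tryptophan-tRNA ligase, Mycobacterium tuberculosis (UniProt P9WFT3). Concentration: 10 µM. Direction is not recorded; retested compounds ran higher, which suggests that high means inhibition. About 65,000 compounds were tested under these conditions; 0.098% (about 64) showed 50% or more at least once.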
CoaBC: 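Enzyme assay of CoaBC with a phosphate dye (Biomol Green) read at 650 nm. Target: Coenzyme A biosynthesis protein CoaBC, Mycobacterium tuberculosis (UniProt P9WNZ1). Tested at 30 µM. Higher reads as stronger inhibition, judged from the few compounds that gave an IC50. Most strong results did not repeat in a second test. Size under these conditions: about 67,000 compounds, about 40 of them at 50% or above in at least one test.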

{"compound": "CCc1nnc(CNC(=O)CCCN2CCCCC2)s1", "LiHisRS": 19.18, "MtTrpRS": 3.279, "CoaBC": 2.689}
{"compound": "OCCCc1nncn1-c1cccc(C(F)(F)F)c1", "LiHisRS": 9.735, "MtTrpRS": 3.769, "CoaBC": 4.883}
{"compound": "CC(C)n1[nH]c(=O)c2c1NC(=O)CSC2C1CCCCC1", "stereo": "stereo not given", "LiHisRS": 13.56, "MtTrpRS": -0.3943, "CoaBC": 1.38}
{"compound": "CCc1ccc(CN2CCN(C)C3(CCC(=O)N(CC4CC4)CC3)C2)o1", "stereo": "stereo not given", "LiHisRS": 17.74, "MtTrpRS": 1.077, "CoaBC": 0.8485}
{"compound": "Cn1cnc2c1CCN(CCCc1ccccc1)C2", "LiHisRS": 28.38, "MtTrpRS": 1.436, "CoaBC": 8.996}
{"compound": "CN(C)C(=O)c1c[nH]nc1C1CCN(S(=O)(=O)c2ccccc2)CC1", "LiHisRS": 7.042, "MtTrpRS": -2.514, "CoaBC": 4.513}
{"compound": "NS(=O)(=O)c1cccc(CNc2nccc(C(F)(F)F)n2)c1", "LiHisRS": 6.14, "MtTrpRS": -2.119, "CoaBC": -42.96}
{"compound": "CCc1nc(CN(CCc2ccccc2)C2CCN(C)CC2)no1", "LiHisRS": 10.83, "MtTrpRS": -4.631, "CoaBC": 3.851}
{"compound": "CCn1nc(C)c(CNC(=O)C2COc3ccccc3C2)c1C", "stereo": "stereo not given", "LiHisRS": 14.4, "MtTrpRS": 1.204, "CoaBC": -1.22}
{"compound": "CN(C)C(=O)N1CCCC2(CCN(c3ccsc3)C2=O)C1", "stereo": "stereo not given", "LiHisRS": 7, "MtTrpRS": -1.895, "CoaBC": 2.843}
{"compound": "Cn1cccc(NC(=O)N2CCC(CSc3ccccc3)C2)c1=O", "stereo": "stereo not given", "LiHisRS": 78.07, "MtTrpRS": 9.025, "CoaBC": 11.98}
{"compound": "COc1ncccc1C(=O)N1CCC(CNC(C)=O)CC1", "LiHisRS": 20.39, "MtTrpRS": -2.131, "CoaBC": 2.679}
{"compound": "CC(c1ccon1)N(C)C(=O)C1CCN(C2CCCCC2)CC1", "stereo": "stereo not given", "LiHisRS": 21.51, "MtTrpRS": 2.564, "CoaBC": -0.7371}
{"compound": "O=C(CN1CCCC1)N1CCCC(c2cc(=O)n3c(n2)CCCCC3)C1", "stereo": "stereo not given", "LiHisRS": 13.68, "MtTrpRS": -3.072, "CoaBC": -0.4866}
{"compound": "CC(CNC(=O)c1ccn(-c2ccc(F)cc2)n1)Cn1cccn1", "stereo": "stereo not given", "LiHisRS": 13.16, "MtTrpRS": -1.891, "CoaBC": 3.03}
{"compound": "CN(CC1COc2ccccc2O1)C(=O)NCCCn1cncn1", "stereo": "stereo not given", "LiHisRS": 44, "MtTrpRS": -2.516, "CoaBC": 3.191}
{"compound": "COCC1CN(S(C)(=O)=O)Cc2ncn(CC3CC3)c21", "stereo": "stereo not given", "LiHisRS": 13.21, "MtTrpRS": -4.694, "CoaBC": -2.203}
{"compound": "FC(F)(F)C1CCCn2c(CNCc3ccco3)nnc21", "stereo": "stereo not given", "LiHisRS": 11.29, "MtTrpRS": 3.194, "CoaBC": 7.749}
{"compound": "CCn1ncc2c1C(COCC1CC1)N(Cc1ccccn1)CC2", "stereo": "stereo not given", "LiHisRS": 19.66, "MtTrpRS": -0.3526, "CoaBC": 2.917}
{"compound": "CC(CCSc1ccccc1)N1CCN(C(=O)c2ccccc2O)CC1", "stereo": "stereo not given", "LiHisRS": 20, "MtTrpRS": 2.993}
{"compound": "CCn1c(CN(C)C(C)CSC)nc2c(F)cccc21", "stereo": "stereo not given", "LiHisRS": 7.018, "MtTrpRS": -7.869, "CoaBC": 5.645}
{"compound": "COc1ccc2c(c1)OCC(Cc1cnc(N)c(C)c1)C2", "stereo": "stereo not given", "LiHisRS": 18.18, "MtTrpRS": 5.078, "CoaBC": -17.95}
{"compound": "Cc1nc(C2CCCN2CCCn2c(=O)oc3ccccc32)no1", "stereo": "stereo not given", "LiHisRS": 5.208, "MtTrpRS": 7.121, "CoaBC": -9.821}
{"compound": "O=C(C1SCCc2sccc21)N1CCCCC1", "stereo": "stereo not given", "LiHisRS": 15.18, "MtTrpRS": 2.922, "CoaBC": 13.89}
{"compound": "Cc1nnc([C@]23COC[C@H]2CN(Cc2cccs2)C3)o1", "LiHisRS": 8.547, "MtTrpRS": 3.004}
{"compound": "COc1cc(Cl)ccc1C(=O)NCc1n[nH]c(C)n1", "LiHisRS": 16.42, "MtTrpRS": 0.273, "CoaBC": 0}
{"compound": "O=C(c1[nH]nc(C2CC2)c1Cl)N1CCCC1", "LiHisRS": 25.71, "MtTrpRS": 1.754}
{"compound": "COCCN1CCc2cc(C(=O)N(C)C)c(NC(C)C)nc2CC1", "LiHisRS": 1.887, "MtTrpRS": -3.185, "CoaBC": -6.167}
{"compound": "O=S(=O)(N[C@H]1CC[C@H]1NC1Cc2ccccc2C1)c1cccnc1", "LiHisRS": 14.67, "MtTrpRS": -6.985, "CoaBC": 0.4132}
{"compound": "Cc1csc(S(=O)(=O)N2CCN(C)C3(CCC(=O)N(C)CC3)C2)c1", "stereo": "stereo not given", "LiHisRS": 6, "MtTrpRS": -0.6224, "CoaBC": -1.238}
{"compound": "CC(C)(C)c1n[nH]c(C2CN(CCc3ccncc3)CCO2)n1", "stereo": "stereo not given", "LiHisRS": 11.43, "MtTrpRS": -2.252, "CoaBC": -1.099}
{"compound": "CN1CCN(C(=O)[C@@H]2C[C@@H]3CCN(c4cccc(F)c4)C[C@H]3O2)CC1", "LiHisRS": 2.778, "MtTrpRS": 7.181, "CoaBC": 11.96}
{"compound": "Cc1nn(COc2cccc(F)c2)c(C)c1NC(=O)C1CC1", "LiHisRS": 6.173, "MtTrpRS": -2.037, "CoaBC": 3.316}
{"compound": "O=C(c1sccc1C1CC1)N1CCN(c2nccs2)CC1", "LiHisRS": 0.9009, "MtTrpRS": -1.899, "CoaBC": 2.724}

Repeated from the top, 2 entries:

compound,LiHisRS,MtTrpRS,CoaBC
CCc1nnc(CNC(=O)CCCN2CCCCC2)s1,19.18,3.279,2.689
OCCCc1nncn1-c1cccc(C(F)(F)F)c1,9.735,3.769,4.883

The values are deposited in ChEMBL (CHEMBL3988442, “University of Dundee, Small-Polar-MMV Screening Library” (2021)).